# Patent publication US8236953B2, “Process for preparing piper azine derivatives” (Glaxo Group Limited, priority 2006, dated 2012)
# Protein sequences, listed by entry. Tags and fused reporters are not part of them. Lines headed by an entry give the natural chain unless they say otherwise; changes in a name come on top.
# UniProt O43193: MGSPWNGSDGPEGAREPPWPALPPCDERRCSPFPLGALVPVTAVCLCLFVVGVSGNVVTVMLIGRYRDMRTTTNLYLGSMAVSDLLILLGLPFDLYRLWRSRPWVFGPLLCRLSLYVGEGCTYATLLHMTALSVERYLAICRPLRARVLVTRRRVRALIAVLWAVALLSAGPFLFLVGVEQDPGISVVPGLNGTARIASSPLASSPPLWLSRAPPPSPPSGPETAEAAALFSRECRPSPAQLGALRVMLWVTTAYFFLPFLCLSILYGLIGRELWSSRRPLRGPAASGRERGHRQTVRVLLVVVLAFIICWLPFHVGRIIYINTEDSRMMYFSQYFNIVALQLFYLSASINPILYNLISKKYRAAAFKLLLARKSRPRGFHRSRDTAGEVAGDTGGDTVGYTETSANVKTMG
# Some results were stated once for a whole list of compounds, not compound by compound.
# Molecular target: T1, GPR38 receptor (Homo sapiens, UniProt O43193)
# T1 construct: expressed in transfected cells; host or cells: CHO-K1
# Assay: GPR38 FLIPR functional agonist assay
# Format: cell-based
# Details: CHO-K1 cells stably expressing the GPR38 receptor; Fluo 4 calcium fluorescence; agonist response
row,Compound,pEC50 in the FLIPR assay
1,"C[C@H]1CN(Cc2ccc(N(C)C(=O)N3CCC(Nc4cccc(C#N)c4)CC3)cc2)CCN1 [Example 3, 4-[(3-cyanophenyl)amino]-N-methyl-N-(4-{[(3S)-3-methyl-1-piperazinyl]methyl}phenyl)-1-piperidinecarboxamide]",≥ 6.4
2,"C[C@H]1CN(Cc2ccc(N(C)C(=O)N3CCC(Nc4ccc(C#N)cc4)CC3)cc2)CCN1 [Example 5, 4-[(4-cyanophenyl)amino]-N-methyl-N-(4-{[(3S)-3-methyl-1-piperazinyl]methyl}phenyl)-1-piperidinecarboxamide]",≥ 6.4
3,"C[C@H]1CN(Cc2ccc(N(C)C(=O)N3CCC(Nc4ccccc4C(N)=O)CC3)cc2)CCN1 [Example 6, 4-{[2-(aminocarbonyl)phenyl]amino}-N-methyl-N-(4-{[(3S)-3-methyl-1-piperazinyl]methyl}phenyl)-1-piperidinecarboxamide]",≥ 6.4
4,"C[C@H]1CN(Cc2ccc(N(C)C(=O)N3CCC(Oc4cccc(F)c4)CC3)cc2)CCN1 [Example 7, 4-[(3-fluorophenyl)oxy]-N-methyl-N-(4-{[(3S)-3-methyl-1-piperazinyl]methyl}phenyl)-1-piperidinecarboxamide]",≥ 6.4
5,"C[C@H]1CN(Cc2ccc(N(C)C(=O)N3CCC(Nc4ccccc4C#N)CC3)cc2)CCN1 [Example 8, 4-[(2-cyanophenyl)amino]-N-methyl-N-(4-{[(3S)-3-methyl-1-piperazinyl]methyl}phenyl)-1-piperidinecarboxamide]",≥ 6.4
6,"COc1ccc(NC2CCN(C(=O)N(C)c3ccc(CN4CCN[C@@H](C)C4)cc3)CC2)cc1F [Example 9, 4-{[3-fluoro-4-(methyloxy)phenyl]amino}-N-methyl-N-(4-{[(3S)-3-methyl-1-piperazinyl]methyl}phenyl)-1-piperidinecarboxamide]",≥ 6.4
7,"COc1cc(NC2CCN(C(=O)N(C)c3ccc(CN4CCN[C@@H](C)C4)cc3)CC2)ccc1F [Example 10, 4-{[4-fluoro-3-(methyloxy)phenyl]amino}-N-methyl-N-(4-{[(3S)-3-methyl-1-piperazinyl]methyl}phenyl)-1-piperidinecarboxamide]",≥ 6.4
8,"CN(C(=O)N1CCC(Nc2cccc(C#N)c2)CC1)c1ccc(CN2CCNCC2)cc1 [Example 13, 4-[(3-cyanophenyl)amino]-N-methyl-N-[4-(1-piperazinylmethyl)phenyl]-1-piperidinecarboxamide]",≥ 6.4
9,"C[C@H]1CN(Cc2ccc(N(C)C(=O)N3CCC(c4ccc(F)cc4)CC3)cc2)CCN1 [Example 16, 4-(4-Fluorophenyl)-N-methyl-N-(4-{[(3S)-3-methyl-1-piperazinyl]methyl}phenyl)-1-piperidinecarboxamide]",≥ 6.4
10,"C[C@H]1CN(Cc2ccc(N(C)C(=O)N3CCC(c4cccc(F)c4)CC3)cc2)CCN1 [Example 17, 4-(3-Fluorophenyl)-N-methyl-N-(4-{[(3S)-3-methyl-1-piperazinyl]methyl}phenyl)-1-piperidinecarboxamide]",≥ 6.4
11,"C[C@H]1CN(Cc2ccc(N(C)C(=O)N3CCC(c4cccc(C#N)c4)CC3)cc2)CCN1 [Example 18, 4-(3-Cyanophenyl)-N-methyl-N-(4-{[(3S)-3-methyl-1-piperazinyl]methyl}phenyl)-1-piperidinecarboxamide]",≥ 6.4
